Literature values in patent US12606852B2, “Conversion of lignin-derived monomers to muconate by engineered pseudomonas” (Alliance for Sustainable Energy, LLC, priority 2021, dated 2026).
At least one compound was matched to its structure with a doubt left.

Tested on: Pseudomonas fluorescens PHBH (para-hydroxybenzoate-3-hydroxylase)
Conditions: reported value, natively produced PHBH; read-out: KM^4HB; cited from earlier work

Which Km does the source give for `O=C(O)c1ccc(O)cc1` [4-hydroxybenzoate] here?
Its Km is 25 µM.
